# Experimental data taken from paper PMC3257248, “Wnt4 Participates in the Formation of Vertebrate Neuromuscular Junction” (PLoS ONE, 2012).
# Results are given in words; binding and its absence hold for the method and conditions named. In cells and extracts the contact can be indirect. Some results given as binding are weak or reduced against the parent protein; the word gives no strength. Where a sequence is shown, tags or fusion partners need not be part of it.
# T1: MuSK (muscle specific kinase), full length (rat) (UniProt Q62838)
# T1 sequence: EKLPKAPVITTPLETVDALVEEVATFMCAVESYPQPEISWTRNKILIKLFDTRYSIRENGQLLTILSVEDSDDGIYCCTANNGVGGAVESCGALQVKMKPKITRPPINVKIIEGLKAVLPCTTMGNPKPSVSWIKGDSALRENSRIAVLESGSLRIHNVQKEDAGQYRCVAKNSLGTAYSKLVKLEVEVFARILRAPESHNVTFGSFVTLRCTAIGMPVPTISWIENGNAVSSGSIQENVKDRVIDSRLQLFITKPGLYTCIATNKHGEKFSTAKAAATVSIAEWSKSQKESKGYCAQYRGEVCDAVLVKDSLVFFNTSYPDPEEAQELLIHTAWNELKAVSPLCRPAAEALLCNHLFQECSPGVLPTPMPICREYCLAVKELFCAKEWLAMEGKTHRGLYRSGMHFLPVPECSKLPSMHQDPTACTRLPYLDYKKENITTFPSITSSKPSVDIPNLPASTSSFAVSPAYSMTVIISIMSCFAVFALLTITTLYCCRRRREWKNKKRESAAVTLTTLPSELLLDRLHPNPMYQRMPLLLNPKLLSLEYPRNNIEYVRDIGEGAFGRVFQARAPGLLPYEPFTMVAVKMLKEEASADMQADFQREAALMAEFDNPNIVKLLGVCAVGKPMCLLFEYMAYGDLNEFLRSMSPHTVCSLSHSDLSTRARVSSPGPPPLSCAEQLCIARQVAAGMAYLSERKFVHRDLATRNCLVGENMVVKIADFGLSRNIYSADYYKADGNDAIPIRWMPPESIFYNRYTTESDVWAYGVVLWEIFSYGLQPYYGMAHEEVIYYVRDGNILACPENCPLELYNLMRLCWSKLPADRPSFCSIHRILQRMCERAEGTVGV
# Molecular target: T1, MuSK (muscle specific kinase), full length (rat)
# Assay: co-IP; COS 7 cells cotransfected with Wnt4-HA and MuSK or MuSKΔCRD; total cell lysates immunoprecipitated with anti-MuSK or anti-HA antibodies and protein A or G sepharose (3 hours at 4°C), washed in lysis buffer (Tris HCl 50 mM, NaCl 150 mM, EDTA 2 mM, SDS 0.1%, Triton X100 1%); western blot with HA or MuSK antibodies
binder,measurement,value
"HA-tagged Wnt4 (ligand, UniProt P22724 23-351, looked up) SNWLYLAKLSSVGSISEEETCEKLKGLIQRQVQMCKRNLEVMDSVRRGAQLAIEECQYQFRNRRWNCSTLDSLPVFGKVVTQGTREAAFVYAISSAGVAFAVTRACSSGELEKCGCDRTVHGVSPQGFQWSGCSDNIAYGVAFSQSFVDVRERSKGASSSRALMNLHNNEAGRKAILTHMRVECKCHGVSGSCEVKTCWRAVPPFRQVGHALKEKFDGATEVEPRRVGSSRALVPRNAQFKPHTDEDLVYLEPSPDFCEQDIRSGVLGTRGRTCNKTSKAIDGCELLCCGRGFHTAQVELAERCGCRFHWCCFVKCRQCQRLVEMHTCR",binding,binds
